Laboratory results: patent publication US20260008852A1
Numbering of substitutions follows the chain as printed. These are yes or no findings as the source states them, for the method shown. Some results given as binding are weak or reduced against the parent protein; the word gives no strength.

Chains of the proteins cited; added tags and fusions are not shown. Residues count along the entry.
UniProt Q8VE98, residues 29-244: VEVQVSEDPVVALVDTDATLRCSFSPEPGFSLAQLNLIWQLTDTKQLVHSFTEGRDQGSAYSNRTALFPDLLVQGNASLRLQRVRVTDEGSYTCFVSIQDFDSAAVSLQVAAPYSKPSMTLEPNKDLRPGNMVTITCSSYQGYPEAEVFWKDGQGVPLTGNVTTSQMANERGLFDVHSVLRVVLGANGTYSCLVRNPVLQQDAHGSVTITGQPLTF
UniProt Q5ZPR3, residues 29-534: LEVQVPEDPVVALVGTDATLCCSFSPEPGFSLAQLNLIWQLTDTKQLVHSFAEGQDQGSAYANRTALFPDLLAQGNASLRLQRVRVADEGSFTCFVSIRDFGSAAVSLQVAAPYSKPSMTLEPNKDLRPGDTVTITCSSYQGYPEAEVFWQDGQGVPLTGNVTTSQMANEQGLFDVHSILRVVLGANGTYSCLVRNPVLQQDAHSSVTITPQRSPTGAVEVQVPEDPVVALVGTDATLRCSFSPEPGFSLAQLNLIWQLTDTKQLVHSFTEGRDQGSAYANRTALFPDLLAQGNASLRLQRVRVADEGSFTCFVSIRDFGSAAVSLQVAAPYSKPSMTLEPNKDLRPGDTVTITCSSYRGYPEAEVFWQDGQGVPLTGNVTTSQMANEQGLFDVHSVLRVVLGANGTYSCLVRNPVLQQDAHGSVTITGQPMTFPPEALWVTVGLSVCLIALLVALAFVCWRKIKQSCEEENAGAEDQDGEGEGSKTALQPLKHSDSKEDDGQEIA

B1: 40633p1.1.D11 (scFv, V domains shown)
VH: EVQLLESGGGLVQPGGSLRLSCAASGFTFRSYAMSWVRQAPGKGLEWVAYIGSSGGTTYYADSVKGRFTISRDNSKNTLYLQMNSLRAEDTAVYYCVKESYYYMDVWGQGTTVTVSS
VL: QSVLTQPPSASGTPGQRVTISCSATISNIDINRVSWYQQLPGTAPKLLIFNSQRPSGVPDRFSGSKSGTSASLAISGLQSEDEADYYCATWDDSLNSWVFGGGTKLTVL
B2: 40633p1.1.H11 (scFv, V domains shown)
VH: EVQLLESGGGLVQPGGSLRLSCAASGFTFSSYPMTWVRQAPGKGLEWVADINSGGGTTLYADAVKGRFTISRDNSKNIVYLQMNSLRGEDTAVYYCAKHLDYYSYGMDVWGQGTTVTVSS
VL: QSVLTQPPSASGTPGQRVTISCSGVTSKIGSKYVHWYQQLPGTAPKLLIYRNFERPSGVPDRFSGSTSGTSASLAISGLQSEDEADYYCATWEGALNGWVFGGGTKLTVL
B3: 40633p1.1.F2 (scFv, V domains shown)
VH: EVQLLESGGGLVQPGGSLRLSCVASGLTFNGFAMTWVRQAPGKGLEWVSGISWNSGSIYYADSVKGRFTISRDNSKNTVYLQMSSLRAEDTAIYYCAKNWNDYYNSMDVWGQGTTVTVSS
VL: QSVLTQPPSASGTPGQRVTISCSGSRSNIGTKYVYWYQQFPGTAPKLLIYTTDRRPSGVPDRFSGSKSGTSASLAISGLQSEDEADYYCSAWDDRLNAWVFGGGTKLTVL
B4: 40633p1.1.G7 (scFv, V domains shown)
VH: EVQLLESGGGLVQPGGSLRLSCAASGFTFSGSAMNWVRQAPGKGLEWVSAINSGGTTIYYADSVKGRFTVSRDNSKNTLYLQMNSLRAEDTAVYYCVKLDFYYGMDVWGEGTTVTVSS
VL: QSVVTQPPSASGTPGQRVTVSCSGSSSNVGSKYVQWYQQLPGTAPKLLIYATDRRPSGVPDRFSGSKSGTSASLAISGLQSEDEADYYCASWDDSLNAWVFGGGTKLTVL
B5: 40633p1.1.A7 (scFv, V domains shown)
VH: EVQLLESGGGLVQPGGSLRLSCAASGFTVSYYGMSWVRQAPGKGLEWVSAIKQDGSEKYYADSVKGRFTISRDNSKNTLYLQMNSLRAEDTAVYYCARHWNDYSNAMNVWGQGTTVTVSS
VL: QSVLTQPPSASGTPGQRVTISCSGSTSNIGRESVYWYQQLPGTAPKLLIYTIDQRPSGVPDRFSGSKSGTSASLAISGLQSEDEAVYYCASWDASLNGWVFGGGTKLTVL
B6: 40633p1.2.D11 (scFv, V domains shown)
VH: EVQLESGGGLVQPGGSLRLSCAASGFTVSYYGMSWVRQAPGKGLEWVSAIKQDGSEKYYADSVKGRFTISRDNSKNTLYLQMNSLRAEDTAVYYCARHWNDYSNAMNVWGQGTTVTVSS
VL: B5 VL with G30A, R31I, E32D, S33F, Y35N, G103R
B7: 40633p1.2.C3 (scFv, V domains shown)
VH: B5 VH with G111E
VL: B5 VL with T26N, I29V, R31G, E32N, S33Y, Y35S, T51R, I52N, D53S
B8: 40633p1.1.G11 (scFv, V domains shown)
VH: B5 VH with A50V, K58E, L86P, A106G
VL: B5 VL with I29V, R31D, E32R, S33Y, T51L, I52D, V86D
B9: 40633p1.1.G5 (scFv, V domains shown)
VH: B5 VH with T28I, S30N, A40P, N77T, A106G
VL: QSVLTQPPSASGTPGQRVTISCSGSWSNIGSYNSHWYQKLPGTAPKLLIYTTDRRPSGVPDRFSGSKSGTSASLAISGLQSEDEADYYCGTWDDSLNVWVFGGGTKLTVL
B10: 40633p1.1.B3 (scFv, V domains shown)
VH: B5 VH
VL: B5 VL with V86D, A90G, S91T, A94D, G98A
B11: 40633p1.2.E1 (scFv, V domains shown)
VH: B5 VH with G9R, A50V, K58E, A106G
VL: B5 VL with I29V, R31D, E32R, S33Y, T51L, I52D, V86D
B12: 40633p1.2.A10 (scFv, V domains shown)
VH: B5 VH with A50V, K58E, A106G
VL: B5 VL with I29V, R31D, E32R, S33Y, T51L, I52D, V86D
B13: 40633p1.1.B12 (scFv, V domains shown)
VH: EVQLLESGGGLLQPGGSLRLSCAASGFSFSSYGMHWVRQAPGKGLEWVAAINSDGSRIYYADSVKGRFTISRDNSKNTLYLQMNSLRAEDTAVYYCTKYYYHYAMDVWGQGTTVTVSS
VL: QSVLTQPPSASGTPGQRVTISCSGSRSDIGATTVNWYQQLPGTAPKLLTYQSHLRPSGVPDRFSGSKSGTSASLAISGLQSEDEADYYCASWDASLNTWVFGGGTKLTVL
B14: 40633p1.1.G10 (scFv, V domains shown)
VH: B13 VH with L12V, Q13E, E46D, A50V, S53G, D54E, R57G, I58T, N77S, H102N
VL: B13 VL with S27T, A31T, T33S, T49I, L54Q, L96Q
B15: 40633p1.2.A8 (scFv, V domains shown)
VH: B13 VH
VL: B13 VL with T49I
B16: 40633p1.2.G9 (scFv, V domains shown)
VH: B13 VH with K65E
VL: B13 VL with T49I
B17: 40633p1.2.E11 (scFv, V domains shown)
VH: EVQLLESGGGLVQPGGSLRLSCAASGFSFSNYDMSWVRQAPGKGLEWVAGIRSGSRTYYADSVKGRFTISRDNSKNTLYLQMNSLRAEDTATYYCGRYFNMDVWGQGTTVTVSS
VL: QSVLTQPPSASGTPGQRVTISCSGSTFNIGTNLVHWYQQLPGTAPKLLIYLTDRRPPGVPDRFSGSKSGTSASLAISGLQSEDEANYYCATWDDSLNSFLFGGGTKLTVL
B18: 40633p1.2.D1 (scFv, V domains shown)
VH: EVQLLESGGGLVQPGGSLRLSCAASGFTFDVYGMSWVRQAPGKGLEWVSAINWNGGSTYYADSVKGRFTISRDNSENTLYLQMNSLRAEDTAVYYCAKEKWKHFIYYGMDVWGQGTTVTVSS
VL: QSVLTQPASASGTPGQTVSISCSGSSSNIDSNTANWYQQLPGTAPKLLIYSNNQRPSGVPDRFSGSKSDTSASLAISGLQSEDEGDYYCSAWDDNLNGWLFGGGTKLTVL

Biological target: His-tagged mouse B7-H3 (mouse) (UniProt Q8VE98)
Assay: ELISA, coated His-tagged antigen

| binding | Binder |
| --- | --- |
| binds | B1 |
| binds | B2 |
| binds | B3 |
| binds | B4 |
| binds | B5 |
| binds | B6 |
| binds | B7 |
| binds | B8 |
| binds | B9 |
| binds | B10 |
| binds | B11 |
| binds | B12 |
| binds | B13 |
| binds | B14 |
| binds | B15 |
| binds | B16 |
| binds | B17 |
| binds | B18 |

Biological target: B7-H3 on B7-H3-expressing CHO cells (Genescript) (UniProt Q5ZPR3)
Assay: flow cytometry, B7-H3-expressing CHO cells, 10 ug/ml

| binding | Binder |
| --- | --- |
| binds | B1 |
| binds | B2 |
| binds | B3 |
| binds | B4 |
| binds | B5 |
| binds | B6 |
| binds | B7 |
| binds | B8 |
| binds | B9 |
| binds | B10 |
| binds | B11 |
| binds | B12 |
| binds | B13 |
| binds | B14 |
| binds | B15 |
| binds | B16 |
| binds | B17 |
| binds | B18 |
